{"source": "patent US20100130603A1", "about": "“MEDICAMENT FOR PROPHYLACTIC AND THERAPEUTIC TREATMENT OF DERMATOSIS RESULTING FROM EXCESSIVELY ADVANCED KERATINIZATION” (KYOTO UNIVERSITY, priority 2007, published 2010)", "test_system": "Serca2 gene", "experiment": "Serca2 mRNA induction in normal human epidermal keratinocytes (NHEK), Northern blotting", "type": "cell-based", "settings": "vanilloid agonists; for induction of Serca2 gene (mRNA): same manner as Example 1", "method": "Normal human epidermal keratinocytes (NHEK) were cultured in a serum-free medium (KGM medium) from which only hydrocortisone was excluded. A test substance dissolved in dimethyl sulfoxide (DMSO) as a solvent was added to the medium and culture was continued, and amount of mRNA of Serca2 gene in the epidermal keratinocytes was quantified by Northern blotting after 3, 6, and 9 hours. […] RNA was extracted 0, 3, 6, 12, 18, 24, and 48 hours after the addition of WiN55,212-2 to the epidermal keratinocytes, and expression of Serca2 gene was observed by Northern blotting.\nTest substances including various kinds of vanilloid agonists were examined in the same manner as that of Example 1.", "note": "For at least one compound, name, drawing or mass did not settle the structure. Some compounds share one wording; it may come from a single statement."}
{"smiles": "CCCCC/C=C\\C/C=C\\C/C=C\\C/C=C\\CCCC(=O)NCCc1ccc(O)c(O)c1", "note": "[arachidonoyldopamine]", "values": [{"measurement": "strength of Serca2 gene inducing action", "setting": "comparison among inducers", "value": "potent inducing action"}, {"measurement": "induction of Serca2 gene (mRNA)", "value": "induced the Serca2 gene"}]}
{"smiles": "CCCCCCCC/C=C\\CCCCCCCC(=O)NCCc1ccc(O)c(O)c1", "note": "[oleoyldopamine]", "values": [{"measurement": "induction of Serca2 gene (mRNA)", "value": "induced the Serca2 gene"}]}
